Data on one molecule can be found in PMC12109034.

Sequences of proteins named here, by UniProt entry; tags and fusion partners are left off. Residues count along the entry.
UniProt O22476, residues 24-1196: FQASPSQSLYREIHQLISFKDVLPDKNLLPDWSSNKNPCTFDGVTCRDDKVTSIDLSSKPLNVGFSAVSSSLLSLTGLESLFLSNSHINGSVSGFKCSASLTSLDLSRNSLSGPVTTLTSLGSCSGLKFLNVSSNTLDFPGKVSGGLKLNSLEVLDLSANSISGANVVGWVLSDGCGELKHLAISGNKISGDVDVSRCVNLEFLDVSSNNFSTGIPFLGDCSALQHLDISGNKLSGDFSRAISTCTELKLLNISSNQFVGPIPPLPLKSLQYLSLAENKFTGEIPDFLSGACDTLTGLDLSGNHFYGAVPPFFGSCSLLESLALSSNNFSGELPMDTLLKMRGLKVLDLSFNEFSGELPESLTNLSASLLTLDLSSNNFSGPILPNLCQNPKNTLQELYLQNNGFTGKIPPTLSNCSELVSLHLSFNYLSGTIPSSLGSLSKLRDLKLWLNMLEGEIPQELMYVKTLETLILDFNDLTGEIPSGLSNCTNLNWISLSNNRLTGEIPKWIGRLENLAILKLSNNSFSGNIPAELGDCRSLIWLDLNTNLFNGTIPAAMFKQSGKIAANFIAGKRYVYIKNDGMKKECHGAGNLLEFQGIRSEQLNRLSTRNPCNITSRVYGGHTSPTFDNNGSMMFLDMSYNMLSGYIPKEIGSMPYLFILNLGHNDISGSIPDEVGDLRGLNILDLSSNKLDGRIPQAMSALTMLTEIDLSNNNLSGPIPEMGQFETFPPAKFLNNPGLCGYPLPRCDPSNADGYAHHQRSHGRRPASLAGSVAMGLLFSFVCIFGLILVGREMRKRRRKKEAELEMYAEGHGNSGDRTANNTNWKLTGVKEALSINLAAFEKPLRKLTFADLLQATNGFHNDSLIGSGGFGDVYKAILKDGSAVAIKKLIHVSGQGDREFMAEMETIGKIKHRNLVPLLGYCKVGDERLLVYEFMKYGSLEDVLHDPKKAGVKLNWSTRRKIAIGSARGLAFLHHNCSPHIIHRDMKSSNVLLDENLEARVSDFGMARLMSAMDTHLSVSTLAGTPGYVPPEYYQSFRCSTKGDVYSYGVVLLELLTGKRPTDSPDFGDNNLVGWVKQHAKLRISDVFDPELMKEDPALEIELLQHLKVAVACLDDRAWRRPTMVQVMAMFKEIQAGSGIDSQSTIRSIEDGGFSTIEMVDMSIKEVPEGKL

Results are given in words; binding and its absence hold for the method and conditions named. In cells and extracts the contact can be indirect. Where a sequence is shown, tags or fusion partners need not be part of it.

In the experiment the target is BRI1-cYFP (UniProt O22476). Description: split reporter; BiFC with nYFP and cYFP fusions in N. benthamiana leaf epidermal cells, confocal microscopy two days after co-infiltration.

B1: At-I2-nYFP (protein, UniProt Q9LTK0 1-191)
chain: MTEPKRGRVQWDEANIVEIESNKPVRQKITEPKTPYHPMMDDDGSLSPRGRAFDECVDDMQRAEELRNVLNDAAASSSRNSSQGSGGGGWSSSDEEEEEADPMDQDEEGSGSGKNERFNAHRKAHYDEFRKVKELRSSGSFYEEEEEEDDGAKGSKSETTTNSRHTKGGNKELDATKTVSGTSSSSSPELI
Regarding B1, the binding result is listed as “no binding”.
